The test system of data set [1] is DP1 (PolD small subunit) + DP2CTD. Put plainly: EMSA. To be noted: 2 mM MgCl2; EMSA: 20 mM Tris-HCl pH 8.0, 10 mM KCl, 10 mM (NH4)2SO4, 1 mM DTT, 0.1 mg/ml BSA, 2 mM MgCl2, 40 C 10 min, 0.8% agarose 0.1x TAE; recombinant protein; protein details: His; label: 5' Cy5; single-stranded DNA.
The target of data set [2] is T1, DP2CTD (Thermococcus kodakarensis) (UniProt Q5JET0).
T1 sequence (looked up): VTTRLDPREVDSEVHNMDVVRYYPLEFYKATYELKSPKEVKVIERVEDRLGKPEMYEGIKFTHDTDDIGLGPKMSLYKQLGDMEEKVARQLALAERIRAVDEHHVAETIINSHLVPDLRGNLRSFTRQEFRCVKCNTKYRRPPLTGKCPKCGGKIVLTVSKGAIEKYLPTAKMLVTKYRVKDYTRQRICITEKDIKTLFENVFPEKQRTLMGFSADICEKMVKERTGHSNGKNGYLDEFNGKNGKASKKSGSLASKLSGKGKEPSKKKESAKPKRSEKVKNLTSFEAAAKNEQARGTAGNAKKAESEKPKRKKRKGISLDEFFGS
Put plainly: EMSA. To be noted: 2 mM MgCl2, weaker than DP1-DP2CTD; EMSA: 20 mM Tris-HCl pH 8.0, 10 mM KCl, 10 mM (NH4)2SO4, 1 mM DTT, 0.1 mg/ml BSA, 2 mM MgCl2, 40 C 10 min, 0.8% agarose 0.1x TAE; recombinant protein; residues 1474-1798; protein details: His; label: 5' Cy5; single-stranded DNA. Background: A gel shift assay detects complexes by their altered migration in electrophoresis.

The exact form of at least one protein or probe is not confirmed. At least one verdict rests on a figure or table, not on a statement of the authors. For some assays here: Tags and fusion partners may be left off the protein sequences shown.

One sequence from article PMC7594292, “Two conformations of DNA polymerase D-PCNA-DNA, an archaeal replisome complex, revealed by cryo-electron microscopy” (BMC Biology, 2020) can be followed below.

“CGAACTGCCTGGAATCCTGACGACATGTAGCG [ssDNA Cy5-pri32]”: the binding result in data set [1] and in data set [2] was “binds” throughout.
